PubChem BioAssay AID504444 (National Center for Advancing Translational Sciences (NCATS), 2011)
Among all 360,000 compounds or so, about 7,500 (2.1%) were called active. Inconclusive results, whose numbers are uncertain, are shown with a selection of clear calls. Calls follow the shape of the dose curve; as a rule, active = well fitted inhibition curve with a large enough effect; inconclusive = small, poorly fitted or top-dose-only effect, or effect the other way; inactive = flat fitted curve, though single readings scatter. Potencies beside an inconclusive call are fits to weak or partial responses and may not hold up.

Test: Nrf2 qHTS screen for inhibitors; also: nearly all actives have a fitted effect of over 60% in size
Conditions: A549 ARE-Fluc reporter, luciferase luminescence, 18-24 h; activity change, negative = inhibition: at 46 µM (top of the series)
Outline: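 Nrf2 function is reported as luminescence of an ARE-controlled luciferase in A549 cells. Compounds were tested at several concentrations, and a CellTiter-Fluor read on the same wells flagged cytotoxicity.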
% is scaled to controls: 0 for no effect and ±100 for the full control effect; potency is read from the fitted curve at half-maximal effect.

Compound | Potency | activity change, negative = inhibition
O=C(COCc1cc(-c2ccc3c(c2)OCO3)on1)N1CCN(c2cccc(Cl)c2)CC1 | inconclusive: 29.1 µM [activator, single point] | 
COc1ccc(-c2noc(C3CCCN(C(=O)c4ccccc4OC)C3)n2)cc1 (stereo not drawn) | inconclusive: 29.1 µM [falling, single point] | 
C/C(=N\Nc1nccnc1Cl)c1ccc(O)c(C)c1 | inconclusive: 25.9 µM [activator, single point] | 
Cc1ccc(N(C)C(=O)N2CCN(S(=O)(=O)c3ccc(C)cc3)CC2)cc1 |  | inactive: -24.7%
CCCCn1nnnc1SCC(=O)Nc1sc2c(c1C#N)CCCC2 | inconclusive: 18.4 µM [falling, single point] | 
CCCCn1c(SCC(=O)c2ccc(O)cc2O)nc2cc(S(N)(=O)=O)ccc21 | inconclusive: 2.91 µM [falling, full curve] | 
CCN1CCN(C(=O)c2cnn(-c3cccc(Cl)c3)c2C2CCN(C(=O)OC(C)(C)C)CC2)CC1 | inconclusive: 29.1 µM [activator, single point] | 
COC(=O)c1ccc(-c2nc(-c3cccs3)no2)cc1 | inconclusive: 1.46 µM [activator, partial curve, poor fit] | 
COC(=O)N/N=C/c1cccc([N+](=O)[O-])c1 |  | inactive: -16.1%
Oc1ccccc1/C=N/Nc1cc(N2CCCC2)nc(N2CCCC2)n1 | inconclusive: 20.6 µM [falling, partial curve, poor fit] | 
COc1ccc2cc(C3(C)NC(=O)N(CC(=O)NCCC4=CCCCC4)C3=O)ccc2c1 (stereo not drawn) |  | inactive: -19.6%
Cc1c(C(=O)N2C[C@@H](C)O[C@@H](C)C2)oc2c(F)cccc12 | inconclusive: 13 µM [activator, partial curve] | 
CCOc1ccccc1NC(=O)C(CC(C)C)NS(=O)(=O)c1ccc2c(c1)oc(=O)n2C (stereo not drawn) |  | inactive: 4.59%
O=C(Nc1nnc(-c2cccs2)o1)c1ccc(S(=O)(=O)N2CCOCC2)cc1 | inconclusive: 13 µM [falling, partial curve] | 
COc1ccc(Cc2nc(-c3ccccc3)no2)cc1 | inconclusive: 7.31 µM [activator, partial curve] | 
CCN(CC)S(=O)(=O)c1cccc(C(=O)Nc2ccc(C#N)cc2)c1 | inconclusive: 9.2 µM [falling, partial curve, poor fit] | 
Cc1ccc2nc(Cl)c3nnnn3c2c1 |  | inactive: -0.714%
COC(=O)c1c(SC)nc2ccccc2c1OCc1ccc(Cl)cc1 |  | inactive: -15.2%
Cn1c(=O)c2c(nc(SCC(=O)Nc3ccccc3)n2Cc2ccccc2F)n(C)c1=O |  | inactive: 6.66%
CCN(CC)S(=O)(=O)c1nnc(NC(=O)COc2ccccc2F)s1 | inconclusive: 5.8 µM [activator, partial curve] | 
CCOc1ccc(NC(=O)Nc2cccn(Cc3ccccc3)c2=O)cc1 | active: 9.2 µM | 
O=S(=O)(c1ccc(Br)cc1Cl)N1CCCN(c2ccc(C(F)(F)F)cn2)CC1 | inconclusive: 25.9 µM [falling, single point] | 

By substructure, the compounds so far with a cyano group (2)
Compound | Potency | activity change, negative = inhibition
CCCCn1nnnc1SCC(=O)Nc1sc2c(c1C#N)CCCC2 | inconclusive: 18.4 µM [falling, single point] | 
CCN(CC)S(=O)(=O)c1cccc(C(=O)Nc2ccc(C#N)cc2)c1 | inconclusive: 9.2 µM [falling, partial curve, poor fit] | 

The list continues.

Compound | Potency | activity change, negative = inhibition
O=[N+]([O-])c1cccc(-c2csc(N/N=C/c3cccc(O)c3)n2)c1 | active: 18.4 µM | 
Fc1ccc(CNc2ncnc3onc(-c4ccc(F)cc4)c23)cc1 |  | inactive: -24.5%
O=C(COc1ccccc1)NNC(=O)c1cc2ccccc2oc1=O | inconclusive: 13 µM [falling, single point] | 
CCc1cccc(C)c1Nc1c(-c2ccccc2)nc2sccn12 | inconclusive: 29.1 µM [falling, single point] | 
COC(=O)[C@@H](NC(=O)N1CCC(C)CC1)C(C)C |  | inactive: 0.789%
O=C(C1=C[C@H](c2ccc(Br)cc2)C[C@H](OCc2ccc(CO)cc2)O1)N1CCN(Cc2ccc3c(c2)OCO3)CC1 | inconclusive: 29.1 µM [falling, single point] | 
Cc1ccc(CSCC(=O)Nc2cc(S(=O)(=O)N3CCOCC3)ccc2OCC(F)(F)F)cc1 | inconclusive: 20.6 µM [falling, single point] | 
O=c1cc(-c2ccccc2Cl)oc2c(NS(=O)(=O)c3cc(Cl)cc(Cl)c3O)ccc(O)c12 | inconclusive: 29.1 µM [falling, single point] | 
COc1ccc(-c2csc(NC(=O)c3ccc(C(C)(C)C)cc3)c2C(=O)O)cc1 | inconclusive: 2.91 µM [falling, full curve] | 
O=S(=O)(c1ccccc1)N1CCN(c2nnc(-c3ccccc3)c3ccccc23)CC1 | inconclusive: 18.4 µM [falling, single point] | 
Nc1nc(SCc2ccc(Br)cc2)n[nH]1 | inconclusive: 8.2 µM [activator, partial curve] | 
CC(=O)Nc1ccc(S(=O)(=O)N(C)Cc2cnn(C)c2)cc1 | inconclusive: 0.461 µM [falling, partial curve, poor fit] | 
COc1ccc(N2C(=O)CC(c3cc(OC)c(OC)c(OC)c3)CC2=O)cc1 | inconclusive: 32.6 µM [falling, single point] | 
O=C(CNc1cc(S(=O)(=O)N2CCCC2)ccc1OCC(F)(F)F)Nc1ccc(SC(F)F)cc1 | active: 5.17 µM | 
COC(=O)c1cn(NC(=O)/C=C/c2cc(OC)ccc2OC)c(=O)c2ccccc12 |  | inactive: -18.8%
Cc1ccc(C)c(C(=O)CCC(=O)Nc2ccc(F)cc2)c1 | inconclusive: 29.1 µM [falling, single point] | 
COc1ccccc1CNC(=O)CCn1nc(C)c2c(C)n(-c3ccccc3)nc2c1=O |  | inactive: -4.28%
Cn1c(=O)n(C)c2cc(C(=O)Nc3ccc4c(c3)OCO4)ccc21 | inconclusive: 23.1 µM [falling, single point] | 
Cc1ccc(C(=O)Nc2cc(C)c(OCC(=O)N3CCOCC3)c(C)c2)cc1 | inconclusive: 20.6 µM [falling, single point] | 
COc1cc(/C=N/Nc2nc(Nc3ccccc3)nc(-n3nc(C)cc3C)n2)cc(OC)c1OC | inconclusive: 16.4 µM [falling, single point] | 
O=[N+]([O-])c1ccc(-[n+]2nc(-c3ccccc3)nn2-c2ccccc2)cc1 | inconclusive: 23.1 µM [falling, single point] | 
